The text below walks through data of PMC4629891.

By UniProt entry, the sequences of proteins in these tests, tags left out. Where a name states a change or a piece, a line headed by the entry shows the natural chain unless it says otherwise.
UniProt P19338: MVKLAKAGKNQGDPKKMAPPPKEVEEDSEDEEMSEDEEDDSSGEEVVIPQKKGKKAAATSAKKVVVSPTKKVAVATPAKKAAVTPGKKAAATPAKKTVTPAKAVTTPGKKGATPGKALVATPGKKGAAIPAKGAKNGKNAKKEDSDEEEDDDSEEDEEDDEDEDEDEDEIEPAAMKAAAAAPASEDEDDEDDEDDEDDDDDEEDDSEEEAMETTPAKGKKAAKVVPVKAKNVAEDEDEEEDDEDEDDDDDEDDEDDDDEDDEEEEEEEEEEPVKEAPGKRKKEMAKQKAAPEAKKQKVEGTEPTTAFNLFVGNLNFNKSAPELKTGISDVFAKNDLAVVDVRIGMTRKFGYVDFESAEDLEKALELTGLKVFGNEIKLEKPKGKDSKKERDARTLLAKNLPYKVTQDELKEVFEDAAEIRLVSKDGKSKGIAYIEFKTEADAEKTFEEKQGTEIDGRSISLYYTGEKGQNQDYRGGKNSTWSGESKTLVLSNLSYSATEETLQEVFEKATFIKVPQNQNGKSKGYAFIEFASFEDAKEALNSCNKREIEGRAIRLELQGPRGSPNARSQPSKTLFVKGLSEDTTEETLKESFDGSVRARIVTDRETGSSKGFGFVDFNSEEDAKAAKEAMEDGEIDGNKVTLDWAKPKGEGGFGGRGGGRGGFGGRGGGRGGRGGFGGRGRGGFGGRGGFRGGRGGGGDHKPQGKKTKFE

Series [1] deals with nucleolin (on the surface of live Huh7 cells) (UniProt P19338). Briefly: confocal microscopy of live Huh7 cells. The settings on record: 200 nM, 30 min, room temperature; Dulbecco's PBS, 4.5 g/L glucose, 5 mM MgCl2, 0.1 mg/mL yeast tRNA, 1 mg/mL BSA, on ice 30 min; 2x10^5 cells in 200 uL; pH not stated; protein on the cell surface; folded or branched DNA.
In series [2] the target is nucleolin (on the surface of live HCO2 cells) (UniProt P19338). Briefly: confocal microscopy of live HCO2 cells. Particulars: 200 nM, 30 min, room temperature; Dulbecco's PBS, 4.5 g/L glucose, 5 mM MgCl2, 0.1 mg/mL yeast tRNA, 1 mg/mL BSA, on ice 30 min; 2x10^5 cells in 200 uL; pH not stated; protein on the cell surface; folded or branched DNA.
Series [3] has as its target nucleolin (on the surface of live Huh7 cells) (UniProt P19338). The series can be described thus: flow cytometry on live Huh7 cells. The settings on record: 5 mM MgCl2, 200 nM DNA, Dulbecco's PBS, 4.5 g/L glucose, 5 mM MgCl2, 0.1 mg/mL yeast tRNA, 1 mg/mL BSA, on ice 30 min, 2x10^5 cells in 200 uL, pH not stated, protein on the cell surface, label: 5'-biotin (streptavidin-PE detection), single-stranded DNA.

The exact form of at least one protein or probe is not confirmed. Where cells or extracts were used, other partners may take part. For some of these results: Negatives hold for the conditions tested. For some of these results: At least one verdict rests on a figure or table, not on a statement of the authors.

Consider “GGTGGTGGTGGTTGTGGTGGTGGTGG [AS1411-FITC]”, for which the binding result in series [1] and in series [2] was “binds” in each case.

“CGACGACGACGACGACGACGACGACGACGA [control-Dox adduct]”: the binding result in series [3] (doxorubicin adducts via formaldehyde) is listed as “no binding”.

Consider “CGACGACGACGACGACGACGACGACGACGA [Control DNA]”, for which the binding result in series [3] is recorded as “no binding”.
